# In PMC5996148:
# The other results are listed elsewhere or left out. For some of these results: The exact form of the protein is not confirmed.
# Legend:
# Test in all cases: protein microarray (ProtoArray v5.0), streptavidin-Alexa Fluor 647
# Settings in all cases: 3'-biotin; 20 mM Tris (pH 7.5), 5 mM MgCl2, 100 mM KCl, 0.1% Tween-20, A/T-rich and random oligonucleotide blockers; temperature not stated; high values mean tight binding
# USP47 (human) = test system: USP47 (human)
# USP48 (human) = test system: USP48 (human)
# USP5 = biological target: T1, USP5 (UniProt P45974)
# T1 sequence: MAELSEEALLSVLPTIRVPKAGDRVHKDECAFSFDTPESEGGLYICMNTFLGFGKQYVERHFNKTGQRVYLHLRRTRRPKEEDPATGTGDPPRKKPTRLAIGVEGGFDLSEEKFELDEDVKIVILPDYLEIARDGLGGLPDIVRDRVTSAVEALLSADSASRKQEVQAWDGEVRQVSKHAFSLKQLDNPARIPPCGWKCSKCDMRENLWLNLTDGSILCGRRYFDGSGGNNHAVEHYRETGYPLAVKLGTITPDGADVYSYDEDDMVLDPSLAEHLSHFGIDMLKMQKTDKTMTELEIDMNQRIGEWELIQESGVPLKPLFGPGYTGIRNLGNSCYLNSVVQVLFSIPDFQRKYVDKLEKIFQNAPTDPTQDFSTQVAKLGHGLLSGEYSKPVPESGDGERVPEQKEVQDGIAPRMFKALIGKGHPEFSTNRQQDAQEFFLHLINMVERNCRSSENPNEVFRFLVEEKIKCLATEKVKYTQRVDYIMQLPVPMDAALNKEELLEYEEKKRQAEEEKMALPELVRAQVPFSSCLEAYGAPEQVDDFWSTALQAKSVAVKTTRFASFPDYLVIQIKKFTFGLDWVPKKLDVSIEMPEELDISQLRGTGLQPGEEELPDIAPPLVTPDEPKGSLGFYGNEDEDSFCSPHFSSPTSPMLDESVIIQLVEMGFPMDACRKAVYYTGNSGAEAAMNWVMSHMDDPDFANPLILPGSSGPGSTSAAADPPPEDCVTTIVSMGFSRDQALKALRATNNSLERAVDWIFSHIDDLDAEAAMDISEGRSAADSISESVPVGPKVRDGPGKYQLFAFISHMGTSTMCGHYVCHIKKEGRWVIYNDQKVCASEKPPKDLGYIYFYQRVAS
# UTP3 (human) = test system: UTP3 (human)
# Ubiquilin-4 (human) = test system: Ubiquilin-4 (human)
# [1] = test system: Ubiquilin-like protein (human)
# [2] = test system: Ubiquinone biosynthesis protein COQ9, mitochondrial (human)
# [3] = test system: Ubiquitin carboxyl-terminal hydrolase 24 (human)
# [4] = test system: Uncharacterized protein C11orf48 (human)
# [5] = test system: Uncharacterized protein C11orf74 (human)
sequence,measurement,setting,value
GGTGACAGGGGTATGGGGAGGGG [G4-2 biotinylated (Ct1)],binding signal,USP47 (human),-0.378 z-score
same,binding signal,USP48 (human),-0.387 z-score
same,binding signal,USP5,-0.378 z-score
same,binding signal,UTP3 (human),-0.412 z-score
same,binding signal,Ubiquilin-4 (human),-0.395 z-score
same,binding signal,[1],-0.391 z-score
same,binding signal,[2],-0.376 z-score
same,binding signal,[3],-0.384 z-score
same,binding signal,[4],-0.373 z-score
same,binding signal,[5],-0.385 z-score
